assay: general procedure: Fmoc solid-phase peptide synthesis; TentaGel S RAM resin (TentaGel Rink amide); HOBt and HBTU; settings: whole synthesis

Substance	isolated yield [%]
Ac-WAFSYNWRWLPP-NH2	7
Ac-AHFSYNWRWLPP-NH2	4
Ac-WHFSYNWRWLPP-NH2	9
Ac-WHFSYNWRWLPA-NH2	8
Ac-WHFAYNWRWLPP-NH2	7
Ac-WHFSANWRWLPP-NH2	8
Ac-WHASYNWRWLPP-NH2	7
